The list shows a part of the results. Single values are uncertain, as repeats are few or missing.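 Cells were imaged in 1,536-well plates, and nuclei stained with an antibody against cleaved PARP were counted against all DNA-stained nuclei to give the apoptosis fraction. Screening doses were chosen to leave most cells alive, and resting and induced cleaved-PARP levels differ strongly between cell lines.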
Test system: SkMel28
Assay: cleaved PARP positive nuclei fraction relative to DMSO control; melanoma cells; higher = more apoptosis
Conditions: library dose: low library concentration; 72 h

| SMILES | cleaved PARP positive nuclei fraction |
| --- | --- |
| NC1(c2ccc(-c3nc4ccn5c(=O)[nH]nc5c4cc3-c3ccccc3)cc2)CCC1 + O=S(=O)(c1ccccc1)N(CC(F)(F)F)c1ccc(C(O)(C(F)(F)F)C(F)(F)F)cc1 [T0901317] (first compound 0.4 µM, partner dose 1.4 µM) | 89.4% |
| NC(=O)c1ccc(N(C(N)=O)c2c(F)cccc2F)nc1-c1ccc(F)cc1F + CC(C)(C)c1cnc(CSc2cnc(NC(=O)C3CCNCC3)s2)o1 [SNS-032] (first compound 0.4 µM, partner dose 0.01 µM) | 32.9% |
| NC(=O)c1ccc(N(C(N)=O)c2c(F)cccc2F)nc1-c1ccc(F)cc1F + CO[C@@H]1[C@H](N(C)C(=O)c2ccccc2)C[C@H]2O[C@]1(C)n1c3ccccc3c3c4c(c5c6ccccc6n2c5c31)C(=O)NC4 [Midostaurin] (first compound 0.4 µM, partner dose 0.08 µM) | 82.3% |
| Cn1cnc2c(F)c(Nc3ccc(Br)cc3Cl)c(C(=O)NOCCO)cc21 [selumetinib] + COc1cc2c(Oc3ccc4[nH]c(C)cc4c3F)ncnc2cc1OCCCN1CCCC1 [cediranib] (first compound 0.015 µM, partner dose 0.4 µM) | 123% |
| C[C@]1(O)C[C@@H](c2nc(-c3ccc4ccc(-c5ccccc5)nc4c3)c3c(N)nccn32)C1 + c1cc(-c2cnn3cc(-c4ccc(OCCN5CCCCC5)cc4)cnc23)ccn1 [Dorsomorphin] (first compound 0.4 µM, partner dose 0.4 µM) | 43.2% |
| CC1(C)CCC(c2ccc(Cl)cc2)=C(CN2CCN(c3ccc(C(=O)NS(=O)(=O)c4ccc(N[C@H](CCN5CCOCC5)CSc5ccccc5)c(S(=O)(=O)C(F)(F)F)c4)cc3)CC2)C1 + NCC(=O)Nc1ccc(-n2nc(C(F)(F)F)cc2-c2ccc3c(ccc4ccccc43)c2)cc1 [OSU03012] (first compound 0.4 µM, partner dose 1 µM) | 248% |
| CN(c1ncccc1CNc1nc(Nc2ccc3c(c2)CC(=O)N3)ncc1C(F)(F)F)S(C)(=O)=O + O=C(O)c1ccc(-c2c[nH]c3ncc(-c4ccccc4)cc23)cc1C1CCCC1 [GSK650394] (first compound 0.08 µM, partner dose 0.16 µM) | 183% |
| NC(=O)c1ccc(N(C(N)=O)c2c(F)cccc2F)nc1-c1ccc(F)cc1F + COc1ccc(-c2ccc3c(N4CCOCC4)nc(N4C[C@@H](C)O[C@@H](C)C4)nc3n2)cc1CO [KU0063794] (first compound 0.4 µM, partner dose 0.02 µM) | 136% |
| NC1(c2ccc(-c3nc4ccn5c(=O)[nH]nc5c4cc3-c3ccccc3)cc2)CCC1 + CCCCCCCCCCCC1=C(O)C(=O)C=C(O)C1=O [Embelin] (first compound 0.4 µM, partner dose 1.2 µM) | 122% |
| NC(=O)c1ccc(N(C(N)=O)c2c(F)cccc2F)nc1-c1ccc(F)cc1F + CC1(C)NC(=O)N(c2ccc([N+](=O)[O-])c(C(F)(F)F)c2)C1=O [nilutamide] (first compound 0.4 µM, partner dose 1 µM) | 28.6% |
| COc1ccc(C2=N[C@@H](c3ccc(Cl)cc3)[C@@H](c3ccc(Cl)cc3)N2C(=O)N2CCNC(=O)C2)c(OC(C)C)c1 [Nutlin-3] + Cn1cncc1[C@@](N)(c1ccc(Cl)cc1)c1ccc2c(c1)c(-c1cccc(Cl)c1)cc(=O)n2C [tipifarnib] (first compound 0.1 µM, partner dose 0.01 µM) | 85.6% |
| CN(c1ncccc1CNc1nc(Nc2ccc3c(c2)CC(=O)N3)ncc1C(F)(F)F)S(C)(=O)=O + Cc1cc([N+](=O)[O-])ccc1NS(=O)(=O)c1cc(Cl)ccc1Cl [FH535] (first compound 0.08 µM, partner dose 1 µM) | 245% |
| CC(=O)O[C@@]12CO[C@@H]1C[C@H](O)[C@@]1(C)C(=O)[C@H](O)C3=C(C)[C@@H](OC(=O)[C@H](O)[C@@H](NC(=O)OC(C)(C)C)c4ccccc4)C[C@@](O)([C@@H](OC(=O)c4ccccc4)[C@H]21)C3(C)C [Docetaxel] + N#Cc1c(O)c2c(-c3ccc(-c4ccccc4O)cc3)csc2[nH]c1=O [A769662] (first compound 0.0001 µM, partner dose 2 µM) | 392% |
| CC(=O)O[C@@]12CO[C@@H]1C[C@H](O)[C@@]1(C)C(=O)[C@H](O)C3=C(C)[C@@H](OC(=O)[C@H](O)[C@@H](NC(=O)OC(C)(C)C)c4ccccc4)C[C@@](O)([C@@H](OC(=O)c4ccccc4)[C@H]21)C3(C)C [Docetaxel] + COc1ccc2c(c1)CCC1C2CCC2(C)C(NCCCCCCN3C(=O)C=CC3=O)CCC12 [U73122] (first compound 0.0001 µM, partner dose 0.4 µM) | 824% |
| CN(c1ncccc1CNc1nc(Nc2ccc3c(c2)CC(=O)N3)ncc1C(F)(F)F)S(C)(=O)=O + COc1cc(N2CCC(N3CCN(C)CC3)CC2)ccc1Nc1ncc(Cl)c(Nc2ccccc2S(=O)(=O)C(C)C)n1 [NVP-TAE684] (first compound 0.08 µM, partner dose 0.08 µM) | 352% |
| NC(=O)c1ccc(N(C(N)=O)c2c(F)cccc2F)nc1-c1ccc(F)cc1F + O=C(O)c1ccc(-c2c[nH]c3ncc(-c4ccccc4)cc23)cc1C1CCCC1 [GSK650394] (first compound 0.4 µM, partner dose 0.16 µM) | 173% |
| C[C@@H](N)c1ccc(C(=O)Nc2ccnc3[nH]ccc23)cc1 + Cc1cc(N2CCOCC2)cc2[nH]c(-c3c(NC[C@@H](O)c4cccc(Cl)c4)cc[nH]c3=O)nc12 [BMS536924] (first compound 0.4 µM, partner dose 0.2 µM) | 74.4% |
| CC(=O)O[C@@]12CO[C@@H]1C[C@H](O)[C@@]1(C)C(=O)[C@H](O)C3=C(C)[C@@H](OC(=O)[C@H](O)[C@@H](NC(=O)OC(C)(C)C)c4ccccc4)C[C@@](O)([C@@H](OC(=O)c4ccccc4)[C@H]21)C3(C)C [Docetaxel] + COc1ccc(-c2ccc3c(N4CCOCC4)nc(N4C[C@@H](C)O[C@@H](C)C4)nc3n2)cc1CO [KU0063794] (first compound 0.0001 µM, partner dose 0.02 µM) | 335% |
| CCCCCCCCc1ccc(CCC(N)(CO)CO)cc1 [fingolimod] + Cc1cc([N+](=O)[O-])ccc1NS(=O)(=O)c1cc(Cl)ccc1Cl [FH535] (first compound 2 µM, partner dose 1 µM) | 135% |
| CCCCCCCCc1ccc(CCC(N)(CO)CO)cc1 [fingolimod] + Cn1cc(/C=C2\C(=O)Nc3cccnc32)c2ccccc21 [GW441756] (first compound 2 µM, partner dose 0.4 µM) | 143% |
| Cn1cnc2c(F)c(Nc3ccc(Br)cc3Cl)c(C(=O)NOCCO)cc21 [selumetinib] + O=C(Nc1ccccc1)c1cc([N+](=O)[O-])ccc1Cl [GW9662] (first compound 0.015 µM, partner dose 2 µM) | 119% |
| COc1ccc(C2=N[C@@H](c3ccc(Cl)cc3)[C@@H](c3ccc(Cl)cc3)N2C(=O)N2CCNC(=O)C2)c(OC(C)C)c1 [Nutlin-3] + COc1ccc2c(c1)CCC1C2CCC2(C)C(NCCCCCCN3C(=O)C=CC3=O)CCC12 [U73122] (first compound 0.1 µM, partner dose 0.4 µM) | 226% |
| CS(=O)(=O)c1ccc(C(=O)Nc2ccc(Cl)c(-c3ccccn3)c2)c(Cl)c1 [vismodegib] + Cc1cc(N2CCOCC2)cc2[nH]c(-c3c(NC[C@@H](O)c4cccc(Cl)c4)cc[nH]c3=O)nc12 [BMS536924] (first compound 1 µM, partner dose 0.2 µM) | 59.1% |
| CC1(C)CCC(c2ccc(Cl)cc2)=C(CN2CCN(c3ccc(C(=O)NS(=O)(=O)c4ccc(N[C@H](CCN5CCOCC5)CSc5ccccc5)c(S(=O)(=O)C(F)(F)F)c4)cc3)CC2)C1 + Cc1cc(N2CCOCC2)cc2[nH]c(-c3c(NC[C@@H](O)c4cccc(Cl)c4)cc[nH]c3=O)nc12 [BMS536924] (first compound 0.4 µM, partner dose 0.2 µM) | 84.3% |
| CC(=O)O[C@@]12CO[C@@H]1C[C@H](O)[C@@]1(C)C(=O)[C@H](O)C3=C(C)[C@@H](OC(=O)[C@H](O)[C@@H](NC(=O)OC(C)(C)C)c4ccccc4)C[C@@](O)([C@@H](OC(=O)c4ccccc4)[C@H]21)C3(C)C [Docetaxel] + Cc1ccc(NC(=O)c2cccc(N(C)C)c2)cc1NC(=O)c1ccc(O)cc1 [ZM336372] (first compound 0.0001 µM, partner dose 2 µM) | 114% |
| C[C@@H](N)c1ccc(C(=O)Nc2ccnc3[nH]ccc23)cc1 + COc1cc(N2CCC(N3CCN(C)CC3)CC2)ccc1Nc1ncc(Cl)c(Nc2ccccc2S(=O)(=O)C(C)C)n1 [NVP-TAE684] (first compound 0.4 µM, partner dose 0.08 µM) | 189% |
| CCN(CC)CCNC(=O)c1c(C)[nH]c(/C=C2\C(=O)Nc3ccc(F)cc32)c1C [sunitinib] + O=c1cc(-c2cccc3c2Sc2ccccc2S3)oc(N2CCOCC2)c1 [KU55933] (first compound 0.4 µM, partner dose 1 µM) | 274% |
| C[C@]1(O)C[C@@H](c2nc(-c3ccc4ccc(-c5ccccc5)nc4c3)c3c(N)nccn32)C1 + O=C(Nc1ccccc1)c1cc([N+](=O)[O-])ccc1Cl [GW9662] (first compound 0.4 µM, partner dose 2 µM) | 194% |

5 consecutive entries out of the list so far, for reference:

| SMILES | cleaved PARP positive nuclei fraction |
| --- | --- |
| Cn1cnc2c(F)c(Nc3ccc(Br)cc3Cl)c(C(=O)NOCCO)cc21 [selumetinib] + O=C(Nc1ccccc1)c1cc([N+](=O)[O-])ccc1Cl [GW9662] (first compound 0.015 µM, partner dose 2 µM) | 119% |
| COc1ccc(C2=N[C@@H](c3ccc(Cl)cc3)[C@@H](c3ccc(Cl)cc3)N2C(=O)N2CCNC(=O)C2)c(OC(C)C)c1 [Nutlin-3] + COc1ccc2c(c1)CCC1C2CCC2(C)C(NCCCCCCN3C(=O)C=CC3=O)CCC12 [U73122] (first compound 0.1 µM, partner dose 0.4 µM) | 226% |
| CS(=O)(=O)c1ccc(C(=O)Nc2ccc(Cl)c(-c3ccccn3)c2)c(Cl)c1 [vismodegib] + Cc1cc(N2CCOCC2)cc2[nH]c(-c3c(NC[C@@H](O)c4cccc(Cl)c4)cc[nH]c3=O)nc12 [BMS536924] (first compound 1 µM, partner dose 0.2 µM) | 59.1% |
| CC1(C)CCC(c2ccc(Cl)cc2)=C(CN2CCN(c3ccc(C(=O)NS(=O)(=O)c4ccc(N[C@H](CCN5CCOCC5)CSc5ccccc5)c(S(=O)(=O)C(F)(F)F)c4)cc3)CC2)C1 + Cc1cc(N2CCOCC2)cc2[nH]c(-c3c(NC[C@@H](O)c4cccc(Cl)c4)cc[nH]c3=O)nc12 [BMS536924] (first compound 0.4 µM, partner dose 0.2 µM) | 84.3% |
| CC(=O)O[C@@]12CO[C@@H]1C[C@H](O)[C@@]1(C)C(=O)[C@H](O)C3=C(C)[C@@H](OC(=O)[C@H](O)[C@@H](NC(=O)OC(C)(C)C)c4ccccc4)C[C@@](O)([C@@H](OC(=O)c4ccccc4)[C@H]21)C3(C)C [Docetaxel] + Cc1ccc(NC(=O)c2cccc(N(C)C)c2)cc1NC(=O)c1ccc(O)cc1 [ZM336372] (first compound 0.0001 µM, partner dose 2 µM) | 114% |
